Measurements as given in patent EP2284541A1, “Fluorescence-based imaging and analysis of cells and cellular components using lipophilic dyes with improved specificity, spectral property and photostability” (Max-Planck-Gesellschaft zur Förderung der Wissenschaften …, priority 2009, dated 2011).

Experiment: Comparative spectral analysis: excitation efficiency and collected emission at given laser lines and filters
Type: physicochemical

Q: Which “collected fluorescence, of total emission” value (BP475-515 nm emission filter) does the source give for CC1=C2C=C3CCCCC3=[N+]2[B-](F)(F)n2c1cc1c2CCCC1 [LD540] here?
A: negligible amount

Q: And the “collected light, of total emission” value (LP560 nm filter)?
A: 37%

Q: And the excitation efficiency (excitation at 458 nm)?
A: 5%

Q: And the excitation efficiency (excitation at 532 nm)?
A: 68%

Q: And the excitation efficiency (excitation at 543 nm)?
A: 93%
